Test results as given in PubChem BioAssay AID248 (DTP/NCI, 2004).
The list is a part of this screen's results and no random one: it gathers tests that were run many times, whatever their T/C, doses with no T/C, and many T/C values between a quarter and a half above the control. Further doses and runs are listed elsewhere. T/C is the treated group as % of the vehicle group. Some entries give survivors of the animals treated and no T/C: the source files T/C as zero there, which appears to mark a toxic dose or a test without result, not a measured value. Some survivor counts are full or nearly so, which does not show that the dose was tolerated: survival well below the control is almost never listed, so the zero probably covers shortened survival too. Survivors were counted at the toxicity check, usually on the fifth day, unless a day is given; later deaths do not show. Schedule codes are those of the source, taken here to give the interval after Q, in days (D) or hours (H), and the number of doses after X. Some schedules carry Z or #; the key to these is not given. Where survival is the endpoint, the PubChem record calls one and a half times the control and up active, and a quarter to a half above the control has no call in these data; cut-offs in other NCI protocols can differ. Additions like (4×) stand for listed records that agree. Some T/C values are followed by the survivors on the day toxicity was checked, most often the fifth; where none is given, no animal had died by that day. Some doses were run more than once; the results are listed from low to high.

Test system: L1210 leukemia ip in BDF1 mice, survival T/C
Assay: NCI In Vivo Anticancer Drug Screen. Data for tumor model L1210 Leukemia (intraperitoneal) in B6D2F1 (BDF1) mice
Conditions: T/C endpoint: mean survival time, higher T/C = longer survival
[1] = dose: 400.0 mg/kg/injection, schedule: Q01DX001 (ip), vehicle: carboxymethylcellulose (CMC)
[2] = dose: 400.0 mg/kg/injection, schedule: Q04DX003 (ip), vehicle: Klucel (hydroxypropylcellulose) (HPC)
[3] = dose: 400.0 mg/kg/injection, schedule: Q01DX009 (ip), vehicle: Klucel (hydroxypropylcellulose) (HPC)
[4] = dose: 100.0 mg/kg/injection, schedule: Q04DX003 (ip), vehicle: Klucel (hydroxypropylcellulose) (HPC)
[5] = dose: 200.0 mg/kg/injection, schedule: Q04DX003 (ip), vehicle: Klucel (hydroxypropylcellulose) (HPC)
[6] = dose: 200.0 mg/kg/injection, schedule: Q04DX003 (ip), vehicle: saline with Tween-80
[7] = dose: 400.0 mg/kg/injection, schedule: Q04DX003 (ip), vehicle: saline with Tween-80
[8] = dose: 400.0 mg/kg/injection, schedule: Q01DX001 (ip), vehicle: Klucel (hydroxypropylcellulose) (HPC)
[9] = dose: 200.0 mg/kg/injection, schedule: Q01DX009 (ip), vehicle: saline
[10] = dose: 200.0 mg/kg/injection, schedule: Q01DX005 (ip), vehicle: saline
[11] = dose: 40.0 mg/kg/injection, schedule: Q04DX003 (ip), vehicle: Klucel (hydroxypropylcellulose) (HPC)
[12] = dose: 100.0 mg/kg/injection, schedule: Q01DX009 (ip), vehicle: Klucel (hydroxypropylcellulose) (HPC)
[13] = dose: 200.0 mg/kg/injection, schedule: Q01DX009 (ip), vehicle: saline with Tween-80

For ClCCN(CCCl)CCCNCCCNc1c2ccccc2nc2c1ccc1ccccc12, the survivor count (dose: 0.08 mg/kg/injection, schedule: Q01DX Z (ip), vehicle: saline) was 0 of 6, the survivor count (dose: 0.16 mg/kg/injection, schedule: Q01DX Z (ip), vehicle: saline) was 0 of 6 and the survivor count (dose: 0.31 mg/kg/injection, schedule: Q01DX Z (ip), vehicle: saline) was 0 of 6. For the same compound, the survivor count (dose: 0.62 mg/kg/injection, schedule: Q01DX Z (ip), vehicle: saline) was 0 of 6, the survivor count (dose: 5.0 mg/kg/injection, schedule: Q01DX Z (ip), vehicle: saline) was 4 of 6 and the survivor count (dose: 7.5 mg/kg/injection, schedule: Q01DX Z (ip), vehicle: saline) was 0 of 6.
With CCC1(CC)c2ccccc2C(CC)(CC)[N+]1(C)C the survivor count [1] was 3 of 6.
For O=C1OC(OC(=O)c2ccccc2)C(Br)=C1Br (configuration not stated), the survivor count [2] was 3 of 6.
CNC(=O)Oc1ccc2ccccc2c1[N+](=O)[O-] was tested, and the survivor count (dose: 150.0 mg/kg/injection, schedule: Q01DX001 (ip), vehicle: other) was 1 of 6 and the survivor count (dose: 300.0 mg/kg/injection, schedule: Q01DX001 (ip), vehicle: other) was 0 of 6.
For COC(=O)C(CCC1CCCCN1)(c1ccccc1)c1ccccc1 (configuration not stated), the T/C (dose: 50.0 mg/kg/injection, schedule: Q01DX009 (ip), vehicle: saline) was 148 % of control (2×), the T/C (dose: 75.0 mg/kg/injection, schedule: Q01DX009 (ip), vehicle: saline) was 125 [4 of 6 alive], 129, 134 % of control and the survivor count (dose: 87.0 mg/kg/injection, schedule: Q01DX009 (ip), vehicle: saline) was 5 of 6. The survivor count (dose: 110.0 mg/kg/injection, schedule: Q01DX009 (ip), vehicle: saline) was 3 of 6.
With N=c1ncn(Cc2ccccc2)c2nc[nH]c12 the survivor count [3] was 0 of 6.
For C[P+]1(CCc2ccccc2)CC(Br)C(Br)C1 (configuration not stated), the survivor count [4] was 3 of 6, the survivor count [5] was 0 of 6 and the survivor count [2] was 0 of 6.
N#CCc1cnc2ccccc2n1 was tested, and the survivor count (dose: 50.0 mg/kg/injection, schedule: Q04DX003 (ip), vehicle: saline with Tween-80) was 1 of 6, the survivor count (dose: 100.0 mg/kg/injection, schedule: Q04DX003 (ip), vehicle: saline with Tween-80) was 0 of 6 and the survivor count [6] was 0 of 6. For the same compound, the survivor count [7] was 0 of 6.
CCOC(=O)c1cnc(SC)nc1Nc1ccc([N+](=O)[O-])cc1 was tested, and the survivor count (dose: 100.0 mg/kg/injection, schedule: Q01DX001 (ip), vehicle: Klucel (hydroxypropylcellulose) (HPC)) was 6 of 6, the survivor count (dose: 200.0 mg/kg/injection, schedule: Q01DX001 (ip), vehicle: Klucel (hydroxypropylcellulose) (HPC)) was 6 of 6 and the survivor count [8] was 6 of 6.
With CC1=CCC(C(C)C)C=C1 (configuration not stated) the survivor count [9] was 1 of 6 and the survivor count (dose: 400.0 mg/kg/injection, schedule: Q01DX009 (ip), vehicle: saline) was 0 of 6.
With c1ccc(CCSc2ncnc3nc[nH]c23)cc1 the T/C (dose: 150.0 mg/kg/injection, schedule: Q01DX009 (ip), vehicle: saline) was 130 % of control and the T/C (dose: 225.0 mg/kg/injection, schedule: Q01DX009 (ip), vehicle: saline) was 134 % of control.
NC(=O)c1cn(C2OC(CO)C(O)C2O)c2ncnc(N)c2c1=O (configuration not stated) was tested, and the survivor count (dose: 100.0 mg/kg/injection, schedule: Q01DX005 (ip), vehicle: saline) was 2 of 6 and the survivor count [10] was 0 of 6.
For Cc1c[n+]2c3ccccc3c3ccccc3c2s1, the T/C (dose: 10.0 mg/kg/injection, schedule: Q01DX009 (ip), vehicle: Klucel (hydroxypropylcellulose) (HPC)) was 125 % of control, the survivor count (dose: 20.0 mg/kg/injection, schedule: Q01DX009 (ip), vehicle: Klucel (hydroxypropylcellulose) (HPC)) was 3 of 6 and the survivor count (dose: 40.0 mg/kg/injection, schedule: Q01DX009 (ip), vehicle: Klucel (hydroxypropylcellulose) (HPC)) was 0 of 6. The survivor count [11] was 0 of 6, the survivor count (dose: 80.0 mg/kg/injection, schedule: Q01DX009 (ip), vehicle: Klucel (hydroxypropylcellulose) (HPC)) was 0 of 6 and the survivor count (dose: 80.0 mg/kg/injection, schedule: Q04DX003 (ip), vehicle: Klucel (hydroxypropylcellulose) (HPC)) was 6 of 6.
For COc1cc(NCCCCCNC(C)C)c2ncccc2c1, the survivor count (dose: 100.0 mg/kg/injection, schedule: Q04DX002 (ip), vehicle: saline with Tween-80) was 0 of 3, the survivor count (dose: 200.0 mg/kg/injection, schedule: Q04DX002 (ip), vehicle: saline with Tween-80) was 0 of 3 and the survivor count (dose: 400.0 mg/kg/injection, schedule: Q04DX002 (ip), vehicle: saline with Tween-80) was 0 of 3.
In the case of CCN(CC)C(=O)c1ccncc1, the survivor count [9] is reported as 6 of 6.
In the case of NNC(=O)c1cccs1, the survivor count (dose: 100.0 mg/kg/injection, schedule: Q01DX001 (ip), vehicle: carboxymethylcellulose (CMC)) is reported as 2 of 4, the survivor count [12] is reported as 1 of 6 and the survivor count [4] is reported as 6 of 6. The survivor count (dose: 200.0 mg/kg/injection, schedule: Q01DX001 (ip), vehicle: carboxymethylcellulose (CMC)) was 0 of 4, the survivor count [5] was 0 of 6 and the survivor count [1] was 0 of 4. For the same compound, the survivor count [2] was 0 of 6.
For COC(=O)c1cc([N+](=O)[O-])c(Br)s1, the survivor count [5] was 2 of 6 and the survivor count [2] was 1 of 6.
With Cc1ccc(S(=O)(=O)OCC2OC(n3ccc(=O)[nH]c3=O)C3OC(C)(C)OC23)cc1 (configuration not stated) the T/C [10] was 140 % of control.
For COc1ccccc1NC(=O)Nc1c(C)cc(C)cc1C, the survivor count [12] was 6 of 6.
CCc1c[c]([Hg][Cl])c(CC)c(CC)c1CC was tested, and the survivor count (dose: 100.0 mg/kg/injection, schedule: Q01DX009 (ip), vehicle: saline with Tween-80) was 0 of 6, the survivor count [13] was 0 of 6 and the survivor count (dose: 400.0 mg/kg/injection, schedule: Q01DX009 (ip), vehicle: saline with Tween-80) was 0 of 6.
With CSC(=S)N/N=C(\C)c1ccccn1 the survivor count [6] was 3 of 3 and the survivor count [7] was 1 of 3.
For NNC(=O)OC12CC3CC(CC(C3)C1)C2, the survivor count (dose: 150.0 mg/kg/injection, schedule: Q01DX009 (ip), vehicle: saline with Tween-80) was 3 of 6, the survivor count [6] was 3 of 6 and the survivor count (dose: 225.0 mg/kg/injection, schedule: Q01DX009 (ip), vehicle: saline with Tween-80) was 0 of 6. For the same compound, the survivor count (dose: 335.0 mg/kg/injection, schedule: Q01DX009 (ip), vehicle: saline with Tween-80) was 0 of 6 and the survivor count [7] was 0 of 6.
O=[N+]([O-])c1ccc(N=Nc2ccc(O)cc2)c([N+](=O)[O-])c1 was tested, and the survivor count [1] was 0 of 4.
CCN(CC)CCNc1ccc([N+](=O)[O-])cc1[N+](=O)[O-] was tested, and the survivor count [13] was 3 of 6 and the survivor count [8] was 1 of 6.
In the case of Cc1cc(C(=O)c2ccccn2)c2cccc(C(F)(F)F)c2n1, the survivor count [7] is reported as 3 of 6.
For CC1CCCN(C)C1 (configuration not stated), the survivor count (dose: 200.0 mg/kg/injection, schedule: Q01DX009 (ip), vehicle: Klucel (hydroxypropylcellulose) (HPC)) was 0 of 6 and the survivor count [3] was 0 of 6.
In the case of Cc1cccc(Nc2c(N)nc(N)nc2N)c1, the survivor count (dose: 100.0 mg/kg/injection, schedule: Q01DX009 (ip), vehicle: saline) is reported as 2 of 6, the survivor count (dose: 200.0 mg/kg/injection, schedule: Q04DX003 (ip), vehicle: saline) is reported as 6 of 6 and the survivor count (dose: 400.0 mg/kg/injection, schedule: Q04DX003 (ip), vehicle: saline) is reported as 0 of 6.
In the case of C=CCN(CC#N)CC#N, the survivor count (dose: 20.0 mg/kg/injection, schedule: Q04DX003 (ip), vehicle: Klucel (hydroxypropylcellulose) (HPC)) is reported as 0 of 6, the survivor count [11] is reported as 0 of 6 and the survivor count [4] is reported as 0 of 6. The survivor count [5] was 0 of 6 and the survivor count [2] was 0 of 6.
CN(N=O)C(=O)NC1C(CO)OC2OC(C)(C)OC21 (configuration not stated) was tested, and the T/C (dose: 200.0 mg/kg/injection, schedule: Q01DX009 (ip), vehicle: saline sonified) was 129 % of control.
